Results of single-concentration screens

From ChEMBL document CHEMBL3988442, “University of Dundee, Small-Polar-MMV Screening Library” (2021).

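Whole-cell growth test on Mycobacterium tuberculosis, read after 4 days in a medium based on cholesterol and the lipid DPPC; the read-out is not stated. Tested at 50 µM. Direction is inferred from retests: higher values go with more growth inhibition. Size under these conditions: about 69,000 compounds, about 370 of them at 50% or above in at least one test.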

Values are the deposited “Percent Effect”, in %. The controls that fix the scale are not given in the record; negative values are as filed. The compounds are a random part of those screened. Two or more numbers in one place are separate tests of the same structure; such repeats can differ widely.

| compound | Percent Effect |
|---|---|
| `CC(C)(C)N1CC(C(=O)N2CC(Oc3ccc(F)cc3)C2)CC1=O` (stereo not drawn) | -22.15 |
| `CCOc1cccc(CNc2ccccc2OC)c1O` | -36.89 |
| `CNC(=O)CN(C)C(=O)c1cc(Cl)c(Cl)n1C` | -16.26 |
| `CCN(Cc1ccncc1)c1cc(C2CCNCC2)nc(C)n1` | -7.912 |
| `O=C(c1cc(C2CC2)[nH]n1)N1CCN(Cc2ccc(Cl)cc2)CC1` | -17.09 |
| `CSCc1noc(CNC2CCCC(C)(C)C2)n1` (stereo not drawn) | 12.5 |
| `[H][C@]12CC[C@]([H])(CN(C(=O)c3ccncc3)C1)N(C(=O)C1CCCC1)C2` | -5.814 & 0.9791 |
| `CSCC(=O)NS(=O)(=O)c1ccc2c(c1)OCCO2` | 6.009 |
| `O=C(c1cc[nH]n1)N1CCc2ccc(S(=O)(=O)N3CCOCC3)cc2C1` | -4.296 |
| `Cc1noc(C)c1-c1cccc(CC2CCN(C(=O)c3cc[nH]n3)C2)n1` (stereo not drawn) | -6.861 |
| `O=C(c1cc(C2CCCN(Cc3ccccn3)C2)no1)N1CCCC1` (stereo not drawn) | -6.662 |
| `CCCc1nc(N2CCC(C)CC2)c2c(n1)c(C)nn2CC` | 25.79 |
| `[H][C@@]12COC[C@]1(COC)CN(C(=O)c1ccc(F)cc1C)C2` | -17.72 |
| `Cc1cc(C)n(C2CN(C(=O)CN3C(=O)CSc4ccccc43)C2)n1` | -24.28 |
| `CSc1ccc(CNC2CCN(CCc3ccncc3)CC2)cc1` | 6.527 |
| `O=C(c1sccc1C1CC1)N1CCN(Cc2cscn2)CC1` | 4.278 |
| `Cc1cnc(N2CCCC3(CCOCC3)C2)nc1` | 7.959 |
| `CC(C)N1CCOC(CC(=O)N2CCCN(Cc3ccncc3)CC2)C1` (stereo not drawn) | -8.437 |
| `C[C@@H]1CN(C(=O)c2cccs2)C[C@]12CCN(CCN(C)C)C2=O.O=C(O)C(F)(F)F` | -4.233 |
| `O=C(Nc1c(N2CCCC2)cccc1N1CCCC1)c1cnsn1` | 12.99 |
| `CC(C)(O)CCc1cccc(C(=O)N[C@@H](CO)C(N)=O)c1` | -12.49 |
| `CN(C)C1CCCN(C(=O)NCCNC(=O)C2CCCC2)C1` (stereo not drawn) | -13.53 |
| `CC(C)c1nnc2n1CCN(C(=O)c1ccc(N(C)C)nn1)C2` | -14.97 |
| `COCC1CN(C(=O)c2ccnnc2)Cc2ncnn2C1` (stereo not drawn) | -10.33 |
| `[H][C@@]12C[C@H](C(=O)N3CCCCO3)CN(C(=O)c3ccncc3)[C@]1([H])CCO2` | -4.952 |
| `c1ccc2c(Cc3nnc([C@H]4CCN(C5CCOCC5)C4)o3)c[nH]c2c1` | -3.042 |
| `NC(=O)NC1CCN(Cc2ccc(Br)c(F)c2)CC1` | 0.568 |
| `COCC(=O)N(C)Cc1ccc(OCc2cccs2)cc1` | 21.75 |
| `Cc1ccc(C)c2c(O)cc(CNCc3ccc(S(N)(=O)=O)cc3)nc12` | -13.73 |
| `O=C(CC1CCCCC1)N1CCC(O)(C(F)(F)F)C1` (stereo not drawn) | 29.84 |
| `CC(C)Cn1cc(NC(=O)N2CCCC2)cn1` | 21.54 |
| `CCn1ncc(-c2cc(C(F)F)n3nc(CCC(=O)O)nc3n2)c1C` | -19.86 |
| `CC(NC(=O)CSCC#N)c1cccc(NC(=O)c2ccccc2)c1` (stereo not drawn) | -3.404 |
| `COCCOCCCC(=O)N1CCC(Cc2ccccc2OC)CC1` | 2.512 |
| `Cc1n[nH]c(C2CN(C(=O)c3cc4c(s3)CCCC4)CCO2)n1` (stereo not drawn) | -14.67 |
| `CS(=O)(=O)N1CCC2(CC1)CC(OCC1CCOCC1)CO2` (stereo not drawn) | -11.08 |
| `COC(=O)c1cc(NC2CCN(CC(F)(F)F)C2=O)ccc1C` (stereo not drawn) | 18.78 |
| `CN(C)c1nc2sc(C(=O)N3CCNC(=O)CC3)cc2s1` | -7.784 |
| `Cc1cccc(N(CCC(N)=O)C(=O)c2cnccn2)c1` | -15.88 |
| `COc1ccc(CNC(=O)N2CCN(CC(O)C3CC3)CC2)cc1.Cl` (stereo not drawn) | 7.537 |
| `Brc1csc(-c2noc(C3COCCO3)n2)c1` (stereo not drawn) | 39.81 & 23.33 |
| `O=C(NCC1CCCO1)Nc1nnc(C(F)(F)F)s1` (stereo not drawn) | -4.649 |
| `CCn1cc(S(=O)(=O)N2CCN(S(=O)(=O)c3ccc(Br)s3)CC2)c(C)n1` | 13.5 |
| `CCCn1c(N2CCCC2)nc2c(C)nn(C)c2c1=O` | -12.46 |
| `NC(=O)c1ccc(S(=O)(=O)NC(=O)COc2ccc3c(c2)CCC3)cc1` | 13.47 |
| `Cc1noc(C)c1CN(Cc1cccs1)C1CCS(=O)(=O)C1` (stereo not drawn) | -21.65 |
| `CCN(CC)C(=O)[C@@H]1C[C@@H](NC(=O)c2ccn(C(C)(C)C)c2)CN1C` | -24.38 |
| `Cc1cc2occ(CC(=O)N3CCC(O)(CN(C)C)C3)c2cc1Cl` (stereo not drawn) | 10.17 |
| `O=C(O)C(F)(F)F.[H][C@]12CN(CCc3ccccc3)C[C@@]1([H])S(=O)(=O)CC[C@@H]2C(=O)NC1CCC1` | -10.1 |
| `Cc1cc(S(=O)(=O)Nc2cccc(OC(F)F)c2)sc1C(=O)O` | 27.5 |
| `COc1ccc(C)nc1NC(=O)CCc1c(C)nn(C)c1C` | -34.45 |
| `O=C(CC1CCCC1)NCCn1nc2ccccn2c1=O` | -7.955 |
| `NC(=O)C(NC1CCN(CC2CCCCC2)CC1)c1ccc(F)cc1` (stereo not drawn) | 7.279 |
| `Cc1cc(C)n(CC(C)CNC(=O)N(C)Cc2ccco2)n1` (stereo not drawn) | 1.927 |
| `CCc1nc(C)cn1C(=O)Nc1ccc(F)cc1` | 0.5996 |
| `O=C(O)C(F)(F)F.[H][C@@]12COC[C@]1(C(=O)NCCc1cccs1)CN(C1CCOCC1)C2` | -6.36 |
| `COc1ccnc(N2CCc3ccc(OC(F)F)cc3C2)n1` | 14.92 |
| `CCOC(=O)C1CC2(CCCCC2)N2CCC(=O)N12` (stereo not drawn) | -4.002 |
| `Cc1ccc([C@H]2CN(C(=O)C3CCC3)C[C@@H]2N)o1` | 3.43 & -1.584 |
| `Cc1n[nH]c(C)c1C1COCCN1C(=O)c1ccc2c(c1)CCO2` (stereo not drawn) | 0.1249 |
| `CS(=O)(=O)c1ccc(C(O)CN2CCC(c3ccn[nH]3)CC2)cc1` (stereo not drawn) | -3.438 |
| `O=C(Nc1ncnc2c1CCC2)c1ccc2c(c1)OCO2` | -21.97 |
| `CC(C)c1nc(C2CCCN2Cc2ccccc2C#N)no1` (stereo not drawn) | 0.5775 |
| `O=C(O)C(F)(F)F.O=C(O)C(F)(F)F.[H][C@@]12CCN(Cc3nccs3)C[C@]1([H])O[C@@H](C(=O)Nc1cccnc1C)C2` | -29.86 |
| `CC(CC(=O)NCCCn1cccn1)c1cccnc1` (stereo not drawn) | -15.01 & -11.91 |
| `O=C(c1cccs1)N1CCCC(c2cc(C(F)F)n3ncnc3n2)C1` (stereo not drawn) | 1.662 |
| `CN(CC1Cc2ccccc2CN1C)C(=O)CSc1ccccn1` (stereo not drawn) | 13.43 |
| `Cc1cc(C(=O)NC2CCN(c3nnc(C)c(C)c3C#N)CC2)no1` | -25.89 |
| `CC(=O)N(Cc1ncc(C)o1)C1CCN(Cc2ccccc2F)C1` (stereo not drawn) | -7.39 |
| `COCCc1noc(-c2ccc(-c3ccc(N)nc3)nc2)n1` | -8.868 |
| `CCN(C)S(=O)(=O)N1CCC(C(O)c2ccc(F)cc2)CC1` (stereo not drawn) | 18.98 |
| `CN(CCNC(=O)c1cnc(-c2ccncc2)nc1)S(C)(=O)=O` | 2.861 |
| `CC(C(=O)N(Cc1ccccc1)CC(F)(F)F)S(C)(=O)=O` (stereo not drawn) | 13.57 |
| `O=S(=O)(c1ccccc1)N1CCC2(CCCN2CC2CCCC2)C1` (stereo not drawn) | 3.778 |
| `Cc1ccc(F)c(S(=O)(=O)N2CCCC2c2ccncc2)c1` (stereo not drawn) | 3.503 & 0.1992 |
| `CCOCC1c2c(cnn2CC2CC2)CCN1Cc1nccs1.O=C(O)C(F)(F)F.O=C(O)C(F)(F)F` (stereo not drawn) | -18.74 |
| `CC(C)=CCC/C(C)=C/CC(C)(C)CNCc1ccco1` | 16.16 |
| `O=C(O)C(=O)O.c1cnc(-c2noc(C3CN(Cc4ccc5c(c4)CCO5)C3)n2)cn1` | 12.68 |
| `COc1cnc(N2CC(N3CCOCC3)C2)nc1-c1ccnn1C` | -0.9218 |

Some entries from above, unchanged:

compound	Percent Effect
Cc1cc(C)n(C2CN(C(=O)CN3C(=O)CSc4ccccc43)C2)n1	-24.28
c1ccc2c(Cc3nnc([C@H]4CCN(C5CCOCC5)C4)o3)c[nH]c2c1	-3.042
Cc1cc(C)n(CC(C)CNC(=O)N(C)Cc2ccco2)n1 (stereo not drawn)	1.927
CC(C)(C)N1CC(C(=O)N2CC(Oc3ccc(F)cc3)C2)CC1=O (stereo not drawn)	-22.15
CC(C)Cn1cc(NC(=O)N2CCCC2)cn1	21.54
COCC(=O)N(C)Cc1ccc(OCc2cccs2)cc1	21.75
CC(C(=O)N(Cc1ccccc1)CC(F)(F)F)S(C)(=O)=O (stereo not drawn)	13.57
CCc1nc(C)cn1C(=O)Nc1ccc(F)cc1	0.5996
O=C(Nc1c(N2CCCC2)cccc1N1CCCC1)c1cnsn1	12.99